Reference: PubChem BioAssay AID504444 (National Center for Advancing Translational Sciences (NCATS), 2011)
Among all 360,000 compounds or so, about 7,500 (2.1%) were called active. Inconclusive results, whose numbers are uncertain, are shown with a selection of clear calls. The call rests on the fitted dose curve; in most records, active means well fitted inhibition curve with a large enough effect; inconclusive means small, poorly fitted or top-dose-only effect, or effect the other way; inactive means flat fitted curve, though single readings scatter. Where the call is inconclusive, the potency comes from a doubtful curve fit.

Assay: Nrf2 qHTS screen for inhibitors; further: nearly all actives have a fitted effect of over 60% in size
Conditions: A549 ARE-Fluc reporter, luciferase luminescence, 18-24 h; activity change, negative = inhibition: at 46 µM (top of the series)
Procedure, shortened: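 Two sequential reads on A549 ARE_Fluc cells exposed to compound for 18-24 h: a CellTiter-Fluor fluorescence read for viability, then a luciferase luminescence read for Nrf2/ARE activity.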
On the % scale 0 is the no-effect control and ±100 the full control effect; potency means the concentration at half of the fitted maximal effect.

Row | SMILES | Potency | activity change, negative = inhibition
1 | CCOc1ccc(CNC(=O)C2CCCN(c3nnc(C)c4c(C)n(-c5ccccc5)nc34)C2)cc1 (stereo not given) | inconclusive: 29.1 µM [falling, partial curve, poor fit] | –
2 | CC1Cc2ccccc2N1CC(=O)Nc1ccc(S(=O)(=O)N(C)C)cc1 (stereo not given) | – | inactive: 7.84%
3 | C/C(CC(=O)Nc1cc(C)ccn1)=N\NC(=O)c1ccc(C(C)(C)C)cc1 | inconclusive: 7.31 µM [falling, partial curve, poor fit] | –
4 | O=C(Nc1ccc(Cl)c(S(=O)(=O)N2CCCCC2)c1)c1cccnc1 | inconclusive: 20.6 µM [falling, single point] | –
5 | Oc1ccccc1/C=N/NC1=NCCCCC1 | inconclusive: 1.64 µM [activator, full curve] | –
6 | O=C(Oc1ccc(Br)cc1C(=S)N1CCCCC1)c1cc([N+](=O)[O-])cc([N+](=O)[O-])c1 | – | inactive: -7.64%
7 | COc1ccc(NC(=O)CSc2ccc(-c3ccco3)nn2)cc1 | – | inactive: -2.45%
8 | CCOc1ncccc1C(=O)N1CCN(C(c2ccccc2)c2ccccc2)CC1 | inconclusive: 29.1 µM [falling, single point] | –
9 | CC12C(=O)N(Cc3ccco3)C(=O)C1C1c3ccccc3C2c2ccccc21 (stereo not given) | inconclusive: 20.6 µM [falling, partial curve, poor fit] | –
10 | Cc1noc(C)c1S(=O)(=O)N1CCCC(C(=O)c2cccc(OC(C)C)c2)C1 (stereo not given) | inconclusive: 18.4 µM [falling, single point] | –
11 | COc1ccccc1C(=O)NC1(C(F)(F)F)C(=O)Nc2c1c(=O)[nH]c(=O)n2-c1ccc(F)cc1 (stereo not given) | inconclusive: 3.26 µM [falling, full curve] | –
12 | CC(=O)Nc1ccc(-c2csc(NC(=O)Cc3ccccc3F)n2)cc1 | inconclusive: 29.1 µM [falling, single point] | –
13 | Cc1nn2c(nc1=O)SCC(c1ccccc1)=N2 | inconclusive: 32.6 µM [activator, single point] | –
14 | Cc1nn(C)c(C)c1/C=C/C(=O)c1ccc(Cl)cc1Cl | inconclusive: 2.91 µM [falling, full curve, poor fit] | –
15 | COc1ccc(CNC(=O)CSc2ncc3c(n2)-c2ccc(Cl)cc2N(Cc2ccccc2)S3(=O)=O)cc1 | inconclusive: 0.164 µM [falling, partial curve, poor fit] | –
16 | COc1ccccc1-c1noc(-c2cc(OC)c(OC)c(OC)c2)n1 | inconclusive: 25.9 µM [falling, single point] | –
17 | Cc1ccc(/C=C/C(=O)c2ccc(O)cc2)cc1 | – | inactive: 1.24%
18 | Nc1c(C(=O)CSc2nnnn2-c2ccccc2)c(=O)[nH]c(=O)n1C1CC1 | – | inactive: 7.68%
19 | COc1ccc(-c2csc(NC(=O)CSCc3c(C)noc3C)n2)c(OC)c1 | active: 16.4 µM | –
20 | COc1ccc(Cl)cc1NC(=O)c1cn(C2CCCC2)c(=O)c2c1c1ccccc1n2C | – | inactive: 53.3%
21 | Cc1nc(NC(=O)c2ccccc2)sc1-c1csc(Nc2ccc(C(=O)O)cc2)n1 | – | inactive: 4.55%
22 | Cc1cc(C)n(CC(=O)Nc2ccc3c(c2)OCO3)c(=O)c1C#N | – | inactive: 5.36%

Row | SMILES | Potency | activity change, negative = inhibition
23 | CCCN(C(=O)c1ccco1)c1nnc(-c2cccc(C)c2)s1 | inconclusive: 10.3 µM [activator, partial curve] | –
24 | Cc1cccc(OCC(=O)NCC(c2ccco2)N2CCCC2)c1 (stereo not given) | inconclusive: 6.51 µM [activator, single point] | –
25 | Cn1ccnc1SCC(=O)c1ccc2ccccc2c1 | inconclusive: 9.2 µM [activator, partial curve] | –
26 | Cc1cccc(N(CC(=O)Nc2ccccc2C(F)(F)F)S(=O)(=O)c2ccccc2)c1C | inconclusive: 4.11 µM [falling, full curve, poor fit] | –
27 | COc1cccc2[nH]c(=O)c(-c3ccccc3)cc12 | inconclusive: 2.91 µM [activator, full curve] | –
28 | Cc1ccc(-c2c3c(=O)n(C)c(=O)n(C)c3c3n2-c2ccccc2NC3c2ccc(C)cc2O)cc1 (stereo not given) | inconclusive: 7.31 µM [falling, partial curve, poor fit] | –
29 | Cc1nn2c(-c3ccc(F)cc3)ccnc2c1Cl | inconclusive: 3.66 µM [activator, single point] | –
30 | COc1ccc(CNC(=O)C2CCCN(Cc3nc(-c4cccc(C)c4)oc3C)C2)cc1 (stereo not given) | inconclusive: 29.1 µM [falling, single point] | –
31 | Clc1ccc(-n2ncc3c(N4CCCC4)ncnc32)cc1 | inconclusive: 0.58 µM [activator, full curve] | –
32 | Cc1c(NC(=O)c2c(NC(=O)CNC3CC3)sc3c2CCCC3)c(=O)n(-c2ccccc2)n1C | – | inactive: 6.19%
33 | O=C(N1CCN(c2ccccn2)CC1)N1c2ccccc2Sc2ccccc21 | inconclusive: 29.1 µM [activator, single point] | –
34 | Clc1ccccc1OCCn1cnc2ccccc21 | inconclusive: 32.6 µM [falling, single point] | –
35 | COc1ccc(-c2cc(C(=O)N3CCCCC3C)no2)cc1OC (stereo not given) | – | inactive: 11.9%
36 | CCOc1ccc(OCC)c(NC(=O)c2nnn(CC(=O)Nc3cc(Cl)ccc3OC)c2N)c1 | inconclusive: 32.6 µM [falling, single point] | –
37 | COc1c(CC=C(C)C)cc(C2CC(=O)c3c(O)cc(O)cc3O2)c(CC=C(C)C)c1O (stereo not given) | – | inactive: 10.1%
38 | Cc1ccc(NC(=O)Cc2nn(C)c(=O)c3ccccc23)cc1F | inconclusive: 4.61 µM [falling, full curve] | –
39 | Cc1ccc(S(=O)(=O)N(C)C)cc1NC(=O)C(C)NC(C)c1cccs1 (stereo not given) | inconclusive: 23.1 µM [falling, single point] | –
40 | Cc1ccccc1-c1cc2nc(C)c(Cl)c(=O)n2[nH]1 | inconclusive: 20.6 µM [activator, single point] | –
41 | O=C(CN1CCOCC1)N1CCc2ccccc2C(c2ccccc2)C1 (stereo not given) | inconclusive: 25.9 µM [activator, partial curve, poor fit] | –
42 | CCc1ccccc1N1C(=O)CN(S(=O)(=O)CC)CC1(C)C(=O)NC1CCCCC1 (stereo not given) | inconclusive: 18.4 µM [activator, single point] | –
43 | CC(C)(C)c1ccc(/C=C(\c2nc3ccccc3[nH]2)S(=O)(=O)c2ccccc2)cc1 | inconclusive: 29.1 µM [falling, single point] | –
44 | Cc1ccc(C)c(N2CCN(C(=O)CCn3c(=S)[nH]c4cc5c(cc4c3=O)OCO5)CC2)c1 | inconclusive: 14.6 µM [falling, partial curve, poor fit] | –

Part of the list above, in markdown:

| Row | SMILES | Potency | activity change, negative = inhibition |
| --- | --- | --- | --- |
| 28 | Cc1ccc(-c2c3c(=O)n(C)c(=O)n(C)c3c3n2-c2ccccc2NC3c2ccc(C)cc2O)cc1 (stereo not given) | inconclusive: 7.31 µM [falling, partial curve, poor fit] | – |
| 29 | Cc1nn2c(-c3ccc(F)cc3)ccnc2c1Cl | inconclusive: 3.66 µM [activator, single point] | – |
| 30 | COc1ccc(CNC(=O)C2CCCN(Cc3nc(-c4cccc(C)c4)oc3C)C2)cc1 (stereo not given) | inconclusive: 29.1 µM [falling, single point] | – |
| 31 | Clc1ccc(-n2ncc3c(N4CCCC4)ncnc32)cc1 | inconclusive: 0.58 µM [activator, full curve] | – |

Carrying on:

Row | SMILES | Potency | activity change, negative = inhibition
45 | Cc1ccc(C(=O)Nc2ccc3ccccc3c2)cc1 | inconclusive: 29.1 µM [falling, single point] | –
46 | Cc1ccc(Cn2c(SCc3ccc(C(=O)N4CCCCC4)cc3)nc3ccncc32)cc1 | inconclusive: 23.1 µM [falling, single point] | –
47 | CC(NC(=O)c1cccs1)c1ccc(Cl)cc1 (stereo not given) | inconclusive: 29.1 µM [falling, single point] | –
48 | CC(C)CCN(C(=S)Nc1cccc(F)c1)C(C)c1cccs1 (stereo not given) | inconclusive: 32.6 µM [falling, partial curve, poor fit] | –
49 | CC1(OC(=O)c2ccco2)C(=O)C=C2C=C(C3CC3)OC=C2C1=O (stereo not given) | – | inactive: -3%
50 | CCOc1ccccc1NC(=O)Nc1nnc(N2CCCC(C)C2)s1 (stereo not given) | – | inactive: -10.8%
51 | Cc1ccc(OCC(O)Cn2c(N)nc3c2c(=O)n(C)c(=O)n3C)cc1 (stereo not given) | inconclusive: 11.6 µM [falling, partial curve, poor fit] | –
52 | O=C1OCCN1/N=C/c1ccc([N+](=O)[O-])o1 | inconclusive: 25.9 µM [falling, single point] | –
53 | CCOc1cc(NC(=O)C2CCCO2)c(OCC)cc1NC(=O)C1CC1 (stereo not given) | inconclusive: 29.1 µM [activator, partial curve, poor fit] | –
54 | CS(=O)(=O)N1CCC(c2noc(-c3ccc(C(F)(F)F)cc3)n2)CC1 | inconclusive: 13 µM [falling, partial curve, poor fit] | –
55 | CCOc1ccc(-n2cc(C(=O)N3CCC(C)CC3)c3cc(OC)c(OC)cc3c2=O)cc1 | inconclusive: 18.4 µM [falling, partial curve, poor fit] | –
56 | O=C(CCNC(=O)c1ccccc1)Nc1ccc(F)c(Cl)c1 | inconclusive: 0.184 µM [falling, full curve, poor fit] | –
57 | Cc1ccc(C(=O)Nc2ccccc2Cl)cc1 | inconclusive: 3.66 µM [activator, full curve] | –
58 | CCCCNC(=O)CNC(=O)c1nn(-c2ccc(OC)cc2)c(=O)c2ccccc12 | inconclusive: 32.6 µM [falling, partial curve, poor fit] | –
59 | Cc1cccc(C(=O)NC(=S)Nc2ccc(Cc3ccncc3)cc2)c1 | inconclusive: 14.6 µM [falling, single point] | –
60 | Cc1nc(C(C)NC(=O)CCc2nnc(CCCc3ccccc3)o2)c(C)s1 (stereo not given) | inconclusive: 9.2 µM [activator, partial curve] | –
61 | Cc1cccc2cc(CN(Cc3cccs3)Cc3nnnn3Cc3ccccc3)c(=O)[nH]c12 | inconclusive: 29.1 µM [falling, single point] | –
62 | COc1cccc(Nc2nc(-c3ccccc3)nc3ccccc23)c1 | inconclusive: 10.3 µM [falling, partial curve, poor fit] | –
63 | Cc1ccc(-c2nnc(Nc3cccc(Cl)c3)c3ccccc23)cc1S(=O)(=O)N1CCN(C)CC1 | inconclusive: 23.1 µM [falling, single point] | –
64 | Nc1cc(Cl)ccc1C(=O)OCC(=O)NC1CCS(=O)(=O)C1 (stereo not given) | inconclusive: 2.59 µM [falling, partial curve] | –
65 | CCCC12CN3CCN(CC(C3)/C1=N\NC(=O)c1ccccc1N)C2 | inconclusive: 20.6 µM [activator, single point] | –
